The filed quantity is “Percent Effect” (%). The controls that fix the scale are not given in the record; negative values are as filed. This is an unselected part of the compounds tested.

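Whole-cell assay for inhibitors of Mycobacterium tuberculosis growth, labelled Cornell in the record; the read-out is not stated. The concentration is filed as 10 mM, unlikely as a test dose, so the dose is not known. Higher means stronger inhibition (inferred from two other growth screens of the library). Of about 53,000 compounds tested this way, about 900 (1.7%) reached 50% or more in at least one test.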

* CNc1nc(C(=O)N2CCCC(COc3ccc(F)cc3)C2)cs1 (configuration not stated) | -6.346%
* COCC(=O)NCC1Cn2nnc(-c3ccoc3)c2CO1 (configuration not stated) | 9.902%
* c1ccc2c(c1)CCC21CN(CCc2ccncc2)CCO1 (configuration not stated) | 25.85%
* Cn1cc(CN2CCC3(CCCN(Cc4ccccn4)C3)CC2)cn1 | 9.228%
* CC(C)CNC(=O)c1cn(-c2ccccn2)c(=O)c2ccccc12 | -22.61%
* Cc1nc(C)c(CC(=O)N2CCN(CC(C)C)CC2)c(=O)[nH]1 | 11.21%
* Cc1nc(C(=O)N2CCCC(c3cccc(-n4ccnc4)n3)C2)co1 (configuration not stated) | 0.3843%
* Cc1nn(CN(CC2CCOC2)C2CC2)c(=O)c2ccccc12 (configuration not stated) | -23.22%
* Cn1cc2ncn(CCCOc3cccnc3)c(=O)c2n1 | 14.25%
* CC(C)CN1CCC(NC(=O)c2ccc(F)cc2Cl)CC1 | 4.823%
* CCNS(=O)(=O)c1cccc(CSC)c1 | 10.83%
* CC(C)c1nccn1C1CCCN(C(=O)c2ccc3nncn3c2)C1 (configuration not stated) | -63.96%
* Cc1ccc(N2CC3(COCCN(Cc4nccs4)C3)OCC2=O)s1.O=C(O)C(F)(F)F (configuration not stated) | 1.547%
* O=S(=O)(c1ccc(F)c(F)c1)n1cc(Cl)cn1 | -7.033%
* CCCNC(=O)N1CCc2ccc(S(=O)(=O)N3CCOCC3)cc2C1 | 1.735%
* COCCC(=O)N1CCC2(CCCN(Cc3cc(OC)ccc3F)C2)C1 (configuration not stated) | 16.96%
* COCCNC(=O)c1ccc2c(=O)n3c(nc2c1)CCN(C)CC3 | -33.55%
* CN1CCCCC1C(=O)N1CCN(c2ccccc2C#N)CC1 (configuration not stated) | 15.57%
* Cc1ccc(CN2CCc3ncnc(C4CC4)c3CC2)s1.O=C(O)C(F)(F)F | -1.247%
* Cc1cc2c(N)nc(=O)n(CC(=O)Nc3ccccc3)c2s1 | 37.62%
* O=C(O)C(F)(F)F.[H][C@]12CCN(c3cccnc3)C[C@@]1([H])CN(CC1CC1)C2 | -9.4%
* CC(C1CC1)N(CC(=O)NC(=O)NC1CC1)C1CC1 (configuration not stated) | 35.21%
* CN(Cc1cnc(N)nc1)CC1CCCN(CCc2ccc(Cl)cc2)C1 (configuration not stated) | -28.13%
* Cc1cccc(N2CC3(COCCN(c4ccncn4)C3)OCC2=O)c1 (configuration not stated) | -3.33%
* CCCSc1ncc(Cl)c(C(=O)NC(CCSC)C(=O)O)n1 (configuration not stated) | -13.39%
* CC(SCC(=O)N(C)CC(=O)NC1CC1)c1ccc(F)c(F)c1 (configuration not stated) | 11.77%
* COc1ccc(S(=O)(=O)NC(=O)c2c(C)noc2C(C)C)cc1OC | -17.46%
* CN1CCC(Oc2ccc(NC(=O)c3ccccc3)cc2)CC1 | 14.19%
* COc1ncccc1CNC(=O)NC(C)Cn1cccn1 (configuration not stated) | -6.466%
* Cc1ccc2nc(CN3CCCC3c3cccnc3)cc(O)c2c1 (configuration not stated) | 22.43%
* COCc1nn(C)c2c1CN(C(=O)c1ccno1)CC2 | -0.7946%
* COc1ncccc1NC(=O)N1CCC(c2ccc(O)cc2)CC1 | 3.146%
* CC(C)[C@H]1COC(=O)N1Cc1nccn1C(C)C | 23.79%
* Cc1ccc(N2CCCC(N(C)Cc3cc(C)no3)C2)nn1 (configuration not stated) | 23.51%
* O=C(NCC(O)CO)Nc1cc(Br)ccc1F (configuration not stated) | -71.16%
* Cc1ccc(CN2CCC3(CC2)C(=O)Nc2ccccc23)s1.O=C(O)C(F)(F)F | 18.05%
* Cc1ncsc1C(=O)NCCN1CCCCCC1=O | -16.98%
* COCCN(Cc1cccs1)C(=O)C1CCCN(C(N)=O)C1 (configuration not stated) | -11.05%

The first 4 entries again:

compound	Percent Effect
CNc1nc(C(=O)N2CCCC(COc3ccc(F)cc3)C2)cs1 (configuration not stated)	-6.346%
COCC(=O)NCC1Cn2nnc(-c3ccoc3)c2CO1 (configuration not stated)	9.902%
c1ccc2c(c1)CCC21CN(CCc2ccncc2)CCO1 (configuration not stated)	25.85%
Cn1cc(CN2CCC3(CCCN(Cc4ccccn4)C3)CC2)cn1	9.228%

From ChEMBL document CHEMBL3988442, “University of Dundee, Small-Polar-MMV Screening Library” (2021).